PubChem BioAssay AID1259308 – NCATS, 2017

- Assay: 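Candidate targets for better recombinant protein yield in mammalian cells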 (primary screen)
- System: human HEK293 embryonic kidney cells stably expressing firefly luciferase (HEK-CMV-Luc2-Hygro)
- Reagent: single siRNA against human genes, 0.8 pmol siRNA per well
- Timing: 72 h
- Read-out: 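Reporter luminescence and viable-cell signal on separate replicate plates, given as percent of non-targeting control and median/MAD z-scores, plus per-cell luciferase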
- Scale: total luciferase, z-score and total luciferase, % of control: higher = more reporter protein produced; luciferase per cell, z-score: higher = more reporter output per viable cell; viable cells, % of control: higher = more viable cells
- Call rule: 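Active when the median/MAD z-score for overall luciferase is greater than 3; a gene was taken forward for validation with new siRNAs if at least two of its three siRNAs passed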
- Meaning of the calls: active = raised luciferase; inactive = no rise
Here is one part, drawn at random, of about 59,000 reagents. About 1,510 of them (2.6%) were called active. 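Calls use total luciferase alone and ignore viability, so some active siRNAs may act by altering cell number.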 Reagents against one gene are numbered here. No sequences are given here.

gene symbol,reagent no.,"total luciferase, z-score","total luciferase, % of control","luciferase per cell, z-score","viable cells, % of control",Outcome
ZNF701 (zinc finger protein 701),1,1.13,104,0.679,97.4,inactive
ZNF701 (zinc finger protein 701),2,0.177,85.4,0.206,90.4,inactive
ZNF701 (zinc finger protein 701),3,-0.721,67.5,-1.23,104,inactive
GLS2 (glutaminase 2),1,0.131,84.5,1.13,70.1,inactive
GLS2 (glutaminase 2),2,0.389,89.6,0.817,80.8,inactive
GLS2 (glutaminase 2),3,1.41,110,1.46,83.6,inactive
IFNW1 (interferon omega 1),1,0.138,84.6,1.4,65.5,inactive
IFNW1 (interferon omega 1),2,0.58,93.4,0.597,89.2,inactive
IFNW1 (interferon omega 1),3,-1.83,45.5,-2.04,87,inactive
SLC22A11,1,-2.32,35.8,-2.56,78.5,inactive
SLC22A11,2,-0.702,67.9,-0.58,88.4,inactive
SLC22A11,3,0.688,95.6,0.452,94.8,inactive
LEPR (leptin receptor),1,-0.67,68.6,-0.897,97,inactive
LEPR (leptin receptor),2,0.908,99.9,1.31,79.1,inactive
LEPR (leptin receptor),3,0.386,89.6,-0.423,112,inactive
ARHGAP42 (Rho GTPase activating protein 42),1,-0.795,66.1,-1.18,101,inactive
ARHGAP42 (Rho GTPase activating protein 42),2,-1.99,42.3,-1.3,66.7,inactive
ARHGAP42 (Rho GTPase activating protein 42),3,-0.0733,80.4,-0.339,98.3,inactive
ARHGAP42 (Rho GTPase activating protein 42),4,1.69,116,1.54,86,inactive
ARHGAP42 (Rho GTPase activating protein 42),5,-0.268,76.6,-0.0503,86.7,inactive
ARHGAP42 (Rho GTPase activating protein 42),6,2.23,126,2.02,82.9,inactive
ASCC2 (activating signal cointegrator 1 complex subunit 2),1,-2.09,40.4,-2.48,86.7,inactive
ASCC2 (activating signal cointegrator 1 complex subunit 2),2,-0.297,76,-1.13,114,inactive
ASCC2 (activating signal cointegrator 1 complex subunit 2),3,-1.31,55.8,-0.965,80.4,inactive

Records above whose target name starts with S or s:
gene symbol,reagent no.,"total luciferase, z-score","total luciferase, % of control","luciferase per cell, z-score","viable cells, % of control",Outcome
SLC22A11,1,-2.32,35.8,-2.56,78.5,inactive
SLC22A11,2,-0.702,67.9,-0.58,88.4,inactive
SLC22A11,3,0.688,95.6,0.452,94.8,inactive

The listing continues:
gene symbol,reagent no.,"total luciferase, z-score","total luciferase, % of control","luciferase per cell, z-score","viable cells, % of control",Outcome
"MFSD2A (MFSD2 lysolipid transporter A, lysophospholipid)",1,0.555,92.9,-0.067,106,inactive
"MFSD2A (MFSD2 lysolipid transporter A, lysophospholipid)",2,1.77,117,0.704,109,inactive
"MFSD2A (MFSD2 lysolipid transporter A, lysophospholipid)",3,-1.03,61.5,-1.23,94.9,inactive
TCTN3 (tectonic family member 3),1,0.277,87.4,0.73,80.6,inactive
TCTN3 (tectonic family member 3),2,0.638,94.6,0.0675,104,inactive
TCTN3 (tectonic family member 3),3,0.934,100,0.874,89.2,inactive
N4BP2 (NEDD4 binding protein 2),1,0.826,98.3,0.586,94.1,inactive
N4BP2 (NEDD4 binding protein 2),2,0.318,88.2,0.773,80.4,inactive
N4BP2 (NEDD4 binding protein 2),3,1.35,109,0.684,101,inactive
TRAPPC12 (trafficking protein particle complex subunit 12),1,-0.688,68.2,-0.491,86.7,inactive
TRAPPC12 (trafficking protein particle complex subunit 12),2,0.758,97,1.01,83,inactive
TRAPPC12 (trafficking protein particle complex subunit 12),3,-0.475,72.4,-0.676,96.7,inactive
PPIE (peptidylprolyl isomerase E),1,-1.37,54.6,-1.25,84.7,inactive
PPIE (peptidylprolyl isomerase E),2,-0.0972,80,-0.66,106,inactive
PPIE (peptidylprolyl isomerase E),3,0.186,85.6,0.921,75,inactive
